These are yes or no findings as the source states them, for the method shown. In cells and extracts the contact can be indirect. These calls come from enrichment with a bait or labelling near it, and not all partners need be listed. No binding means not detected with the bait. For some assays here: Sequences can lack the tags named with a protein.

Amino acid sequences for entries named in this document (tags omitted). A change or cut given only in a name is not applied to a line headed by its entry.
UniProt Q05062: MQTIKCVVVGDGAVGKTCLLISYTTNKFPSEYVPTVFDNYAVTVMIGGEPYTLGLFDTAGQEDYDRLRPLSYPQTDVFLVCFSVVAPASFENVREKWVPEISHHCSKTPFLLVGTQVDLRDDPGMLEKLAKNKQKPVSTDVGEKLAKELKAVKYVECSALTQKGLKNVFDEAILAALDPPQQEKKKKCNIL
UniProt A0A1C3NSL9: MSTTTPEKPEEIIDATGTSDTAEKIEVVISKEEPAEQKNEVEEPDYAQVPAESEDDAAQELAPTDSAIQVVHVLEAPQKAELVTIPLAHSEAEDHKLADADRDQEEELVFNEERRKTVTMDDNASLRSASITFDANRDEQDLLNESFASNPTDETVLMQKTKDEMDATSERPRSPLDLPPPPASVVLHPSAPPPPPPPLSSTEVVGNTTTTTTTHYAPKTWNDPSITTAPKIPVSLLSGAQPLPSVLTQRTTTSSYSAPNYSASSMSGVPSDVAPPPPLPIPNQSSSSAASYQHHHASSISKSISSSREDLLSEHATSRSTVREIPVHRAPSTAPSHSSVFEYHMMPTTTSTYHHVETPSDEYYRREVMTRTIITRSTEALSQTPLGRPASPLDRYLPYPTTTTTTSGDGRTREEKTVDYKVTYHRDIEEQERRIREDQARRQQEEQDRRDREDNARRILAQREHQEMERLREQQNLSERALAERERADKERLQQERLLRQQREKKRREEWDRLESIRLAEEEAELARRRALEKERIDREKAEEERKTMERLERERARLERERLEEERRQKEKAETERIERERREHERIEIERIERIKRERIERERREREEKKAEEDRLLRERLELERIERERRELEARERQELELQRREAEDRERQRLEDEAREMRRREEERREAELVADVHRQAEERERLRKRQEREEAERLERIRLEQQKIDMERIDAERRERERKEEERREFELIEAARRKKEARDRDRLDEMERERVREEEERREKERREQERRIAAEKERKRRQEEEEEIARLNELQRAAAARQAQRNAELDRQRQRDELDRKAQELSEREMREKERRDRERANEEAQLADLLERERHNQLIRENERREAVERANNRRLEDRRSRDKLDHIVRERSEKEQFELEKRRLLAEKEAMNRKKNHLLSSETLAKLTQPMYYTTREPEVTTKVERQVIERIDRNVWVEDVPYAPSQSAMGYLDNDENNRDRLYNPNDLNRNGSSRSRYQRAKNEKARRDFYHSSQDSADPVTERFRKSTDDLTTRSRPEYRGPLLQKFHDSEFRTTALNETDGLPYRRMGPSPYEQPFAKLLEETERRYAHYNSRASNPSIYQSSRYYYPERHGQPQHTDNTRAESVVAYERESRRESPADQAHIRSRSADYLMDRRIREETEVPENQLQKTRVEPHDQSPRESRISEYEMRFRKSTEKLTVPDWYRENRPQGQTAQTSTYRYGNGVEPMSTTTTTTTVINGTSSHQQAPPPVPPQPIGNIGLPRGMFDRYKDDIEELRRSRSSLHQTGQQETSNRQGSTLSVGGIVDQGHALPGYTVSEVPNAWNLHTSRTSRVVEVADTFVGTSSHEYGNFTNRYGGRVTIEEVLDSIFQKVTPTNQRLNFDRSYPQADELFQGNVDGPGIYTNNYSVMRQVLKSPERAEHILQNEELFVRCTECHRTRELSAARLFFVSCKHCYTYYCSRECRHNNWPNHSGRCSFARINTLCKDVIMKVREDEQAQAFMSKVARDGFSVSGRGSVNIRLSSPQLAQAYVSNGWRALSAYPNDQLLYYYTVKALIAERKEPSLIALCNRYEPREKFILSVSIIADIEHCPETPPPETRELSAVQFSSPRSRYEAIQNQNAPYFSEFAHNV
UniProt G5EEI1: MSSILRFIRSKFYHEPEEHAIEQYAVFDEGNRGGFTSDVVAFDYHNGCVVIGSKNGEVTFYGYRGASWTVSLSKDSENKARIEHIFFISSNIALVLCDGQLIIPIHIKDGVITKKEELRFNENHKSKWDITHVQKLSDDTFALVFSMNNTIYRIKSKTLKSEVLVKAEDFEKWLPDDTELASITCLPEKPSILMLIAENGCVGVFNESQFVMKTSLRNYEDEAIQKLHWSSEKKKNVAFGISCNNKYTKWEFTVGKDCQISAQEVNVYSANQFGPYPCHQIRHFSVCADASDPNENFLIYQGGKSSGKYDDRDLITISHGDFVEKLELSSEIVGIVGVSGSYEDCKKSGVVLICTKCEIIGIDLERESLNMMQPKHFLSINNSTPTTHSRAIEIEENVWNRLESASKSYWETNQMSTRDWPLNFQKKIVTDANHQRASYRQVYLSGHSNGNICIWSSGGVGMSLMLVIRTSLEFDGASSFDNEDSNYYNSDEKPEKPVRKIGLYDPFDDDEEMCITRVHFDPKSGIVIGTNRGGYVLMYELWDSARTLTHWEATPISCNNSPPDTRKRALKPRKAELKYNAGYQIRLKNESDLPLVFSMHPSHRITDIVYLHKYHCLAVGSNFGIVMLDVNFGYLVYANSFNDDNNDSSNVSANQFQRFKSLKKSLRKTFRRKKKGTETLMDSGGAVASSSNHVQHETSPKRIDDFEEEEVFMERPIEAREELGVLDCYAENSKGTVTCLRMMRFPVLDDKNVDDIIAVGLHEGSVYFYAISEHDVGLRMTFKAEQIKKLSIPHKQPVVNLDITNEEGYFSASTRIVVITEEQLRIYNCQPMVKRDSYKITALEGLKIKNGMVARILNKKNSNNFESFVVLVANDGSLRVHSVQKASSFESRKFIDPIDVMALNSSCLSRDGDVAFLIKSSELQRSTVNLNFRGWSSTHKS

Common to all, as to test: affinity purification with mass spectrometry; GTA-tagged bait biotinylated in vivo (BirA ubiquitous, intestine, seam/hyp7 or neurons) captured on streptavidin-coated beads from whole-animal lysate (L3/L4; 150 mM NaCl, 20 mM Tris pH 7.8, 5 mM EDTA, 1 % Triton X-100), 1.5 h at 4 °C, released by TEV protease, LC-MS/MS, SAINT scoring against GFP::TEV::Avi controls, triplicates

Experiment [1] has as its target T1, DLG-1::GTA (DLG-1::GFP-2xTEV-Avi) (C. elegans) (UniProt G5ECY0).
T1 sequence (chain, biotin on the Avi tag (in vivo, by BirA)): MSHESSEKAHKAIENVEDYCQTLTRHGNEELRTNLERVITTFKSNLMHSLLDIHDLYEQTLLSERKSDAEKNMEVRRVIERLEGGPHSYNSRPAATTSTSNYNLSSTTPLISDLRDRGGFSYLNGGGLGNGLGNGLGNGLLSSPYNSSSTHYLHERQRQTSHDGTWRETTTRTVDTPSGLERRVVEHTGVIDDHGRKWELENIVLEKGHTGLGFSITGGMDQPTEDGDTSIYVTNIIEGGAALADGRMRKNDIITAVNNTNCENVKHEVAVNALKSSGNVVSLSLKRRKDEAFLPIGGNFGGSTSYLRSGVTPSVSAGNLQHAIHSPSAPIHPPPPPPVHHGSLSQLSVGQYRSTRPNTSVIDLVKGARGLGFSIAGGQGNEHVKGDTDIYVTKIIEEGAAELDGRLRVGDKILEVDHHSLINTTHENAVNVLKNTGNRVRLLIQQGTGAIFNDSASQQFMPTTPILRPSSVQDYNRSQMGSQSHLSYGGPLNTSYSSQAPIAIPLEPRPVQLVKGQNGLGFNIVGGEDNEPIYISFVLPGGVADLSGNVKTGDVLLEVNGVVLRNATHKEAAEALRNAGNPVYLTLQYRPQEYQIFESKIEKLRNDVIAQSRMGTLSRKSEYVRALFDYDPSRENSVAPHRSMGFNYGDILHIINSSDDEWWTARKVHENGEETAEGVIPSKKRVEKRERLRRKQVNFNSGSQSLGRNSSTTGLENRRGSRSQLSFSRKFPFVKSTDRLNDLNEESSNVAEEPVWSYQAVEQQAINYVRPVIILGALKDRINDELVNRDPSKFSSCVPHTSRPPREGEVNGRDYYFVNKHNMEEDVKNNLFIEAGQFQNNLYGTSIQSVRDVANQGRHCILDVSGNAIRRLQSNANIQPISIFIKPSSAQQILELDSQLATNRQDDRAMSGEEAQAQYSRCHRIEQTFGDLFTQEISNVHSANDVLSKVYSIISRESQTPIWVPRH

The target in experiment [2] is T2, LET-413::GTA (LET-413::GFP-2xTEV-Avi) (C. elegans) (UniProt O61967).
T2 sequence (chain, biotin on the Avi tag (in vivo, by BirA)): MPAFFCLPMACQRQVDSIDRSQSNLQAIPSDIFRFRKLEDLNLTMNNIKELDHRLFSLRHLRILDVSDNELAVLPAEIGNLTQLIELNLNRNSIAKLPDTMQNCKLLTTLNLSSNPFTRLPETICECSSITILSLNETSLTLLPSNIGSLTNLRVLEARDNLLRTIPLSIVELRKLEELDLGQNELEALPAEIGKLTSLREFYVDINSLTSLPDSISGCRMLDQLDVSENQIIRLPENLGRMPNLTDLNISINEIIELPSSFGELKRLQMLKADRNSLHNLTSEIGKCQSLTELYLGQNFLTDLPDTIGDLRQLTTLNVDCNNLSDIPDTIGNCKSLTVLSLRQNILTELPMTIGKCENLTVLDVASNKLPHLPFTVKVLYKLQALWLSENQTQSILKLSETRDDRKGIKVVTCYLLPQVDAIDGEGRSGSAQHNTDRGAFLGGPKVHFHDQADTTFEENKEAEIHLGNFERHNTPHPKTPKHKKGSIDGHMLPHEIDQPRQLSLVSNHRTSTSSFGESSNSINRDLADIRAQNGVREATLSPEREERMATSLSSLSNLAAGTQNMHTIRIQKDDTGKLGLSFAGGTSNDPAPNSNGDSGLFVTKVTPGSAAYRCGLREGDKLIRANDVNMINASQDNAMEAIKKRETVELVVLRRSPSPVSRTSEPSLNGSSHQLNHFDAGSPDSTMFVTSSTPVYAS

Experiment [3] addresses GTA::CDC-42 (Avi-2xTEV-GFP::CDC-42) (C. elegans) (UniProt Q05062).

Regarding AJM-1 (from UniProt A0A1C3NSL9 1-1644), the binding result is reported as “binds” in experiment [1], “no binding” in experiment [2] and “no binding” in experiment [3]. Regarding “LGL-1 (endogenous) (from UniProt G5EEI1)”, the figures for the binding entry in experiment [1], in experiment [2] and in experiment [3] were “no binding”, “binds” and “no binding”, respectively. With “MAPH-1.2 (C. elegans (endogenous in whole animals))”, the binding result in experiment [1] and in experiment [2] was “no binding” throughout.

B1: LEC-1 (protein, UniProt P36573 1-279)
chain: MSAEEPKSYPVPYRSVLQEKFEPGQTLIVKGSTIDESQRFTINLHSKTADFSGNDVPLHVSVRFDEGKIVLNSFSNGEWGKEERKSNPIKKGDSFDIRIRAHDDRFQIIVDHKEFKDYEHRLPLSSISHLSIDGDLYLNHVHWGGKYYPVPYESGLANGLPVGKSLLVFGTVEKKAKRFHVNLLRKNGDISFHFNPRFDEKHVIRNSLAANEWGNEEREGKNPFEKGVGFDLVIQNEEYAFQVFVNGERYISFAHRADPHDIAGLQISGDIELSGIQIQ
Take B1: in experiment [1], the binding entry was “binds”.

B2: B0303.3 (protein, UniProt P34255 1-448)
chain: MLRAVSTSFGTARAASAVAKKNMPNIVLVDAVRTPFVVSGTVFKDLMAVDLQKEAIKALVEKTKLPYEQLDHIICGTVIQECKTSNIAREAALLAGVPDKIPAHTVTLACISSNVAMTTGMGMLATGNANAIIAGGVELLSDVPIRYNRNARKAMLGMNKAKDVPSKLKIGGQIVKNLLSPELPAVAEFSTGETMGHSGDRLAAAFNVSRREQDEFAIRSHTLASEAAKNGKFTDVVPVFLDGKKPKTIKEDNGIRVSTLEKLSSLKPAFVKPHGTVTAANASYLTDGASAALIMTEEYALANGYKPKAYLRDYLYVAQDPKDQLLLSPAYVIPKLLDKAGLTLKDVDVFEIHEAFAGQVLANLNAMDSDYFCKEQMKRSGKFGRVPMDKLNLWGGSLSIGHPFGATGVRLATHSAHRLKEEKGQYAVIAACAAGGHGVGMLIEAYGK
In the case of B2, in experiment [2], the binding entry was “binds”.

B3: DIM-1 (protein, UniProt Q18066 1-640)
chain: MASLAPFFKISDSILADESFDDLEINNHFKCTSKDLNEYPRTSTPLPGEITSIYSLPRSYNNQNLCTRSKPTTFISQNQQKGMTEKPKHSEYFLRLMKTRQEMQKKLTAKNGSNKSVQQYLRKLPPSTSKEVTIIPVKMKPDDNSVYISKELSDRTDTKLPKVSTKEVEKFGEQSDDEERHERSHIASDFNQKTPQSTHATSNHRKRIFIGRTGAKQQHVSKKATESELPYNIDVSTSNTTNATEALKLLKRPLLLPSKDPRSSKMPRLDLNQHQFRCKQYIVHSQFTCTQIEKTFKCRVGTSTESEDLDDYYFDAMPDGKAPHFPQQPVARQNDDGSLELECFVDANPTPQVKWYYDNKEVENSGRFSANLANKGSDSYSAILTIKELADADAGAYRCAIVNPHGKGNANFNLKLTGFSSPTFVEKPQISSRDDGQVMVMEFRAKSILEPTFVWQKLVGGGAEEIIANSDRIKAVKKLEAGNVYYSALEIKEPTKDKDAGQFICTVKNESGKLTATFTVKFEVPEGAPSFTRKPQILQQTSAGGEPAICFDIGYSARMNPQVTWISPKSKKMKESSRIKFKTNDEGNGNFTAQLELTNYKAKDSGTYTCNIKNDAGEANVELTLNIEGPLDDYADDSEN
Turning to B3, the binding entry in experiment [1] is listed as “binds”.

B4: COR-1 (protein, UniProt Q21624 1-607)
chain: MAQIVRQSKFRHVFCKPVKHESCMSDIRVTEITWDSLFCDVNPKFIAFINRGAGGPFMVIPVNKIGRVDKDYPFVDAHKAPCLEVAWSPFNDNVIASCSEDTTCKVWVIPDRGLNRNLSEPAVELTGHQKRVNTIAWHPVANNVLLTAGGENVMFMWNVGTGEALLEISGHPDQIWSINFNFDGSQFVTTCKDKKIRILDSHTGEVVHEGMGHEGVKPQRAIFVKDGLILSTGFTKRSERLYALRAPEDLSTPIVEEELDTSNGVVFPFYDEDSGLVYLVGKGDCAIRYYEVNNDAPYVHYINTYTTNEPQRAVGFQSKRGMSSEENEINRIYKLTTKGVVDILQFFVPRKSDLFQHDLYPDTRSTIPALTAEEFMEGKNAAPNRQPVNAAAAAAAAKPKVQVAKKANILSTLAPTAAESVPTQSYSERPPSSQQPSPRPSASPRPRPVVDDDMGIVTMREAPPSRPASSRASRTEIPPKEESKVDPMKPKQAVQLKSRAARDEPGGGAQTAGQRRAAAELERIKRDQSRTADEDNTLAPPPSSSRASASPRGSVSAASDVGHVPQNMDELLEDLMKMKAVLRQHERRIRMLEEEIADRNMSNAYSF
For B4, in experiment [1], the binding result is on record as “binds”.

B5: QARS-1 (protein, UniProt O62431 1-786)
chain: MATKEELLSLGLSDSKVAETLKNVKLTETIGSIVKLASESGEISKQKGTLLYQLATKLKPQVAAHTPLVVKYIMNDGIKTEPQLSAAIEYLLSHTVKGIQVPDFEKSCGVGVVVTIDDIEAAVTKVIGQHREKIVAERYSFPAGKLLGELRALLPWADGAITKKEVDLRFLELLGPKTAEDLAPKKKEKKPEGPKPSKDAAAAATAPGTKNQKEASPEEFADGAETMDELLRTRAHFHKVGENFKQDGYVTTPKTAELLKAHVAAVGGKVVTRFPPEPNGVLHIGHAKAININFGYAKAMGGVCNLRFDDTNPEKEEEKFFSAIEDIVHWLGYDPARVTHSSDNFQQLYLWAVKLIQKGLAFVCHQKVEEMRGFEVQLSPWRERPIEENIQLFEDMKNGKFDEGEATLRLKLTLEEGKVDPVAYRIKYVPHHRTGNQWCIYPTYDYTHCLCDSIENITHSLCTKEFQSRRSSYYWLCNALDIYCPVQWEYGRLNVNYTVVSKRKILKLITTKTVNDWDDPRLFTLTALRRRGIPSEAINRFVAKLGLTMSQMVIDPHVLDATVRDYLNIHAPRTMAVLEGLKLTIENFSELNLPSSVDVPDFPSDPTDPRKHSVSVDREIFIEKSDYKPDDSDKSFRRLTPKQAVGLKHIGLVLRFVKEVKDAEGHVTEVVVKAEKLSEKDKPKAFIHWVAKPVSCEVRLYDRLFKSKNPEDAQLVPGGFLSDINPDSLTVVYNALIDQSIAKSKVYDRFQFERIGFFCVDRDSTSSTLVFNRTVMLKDGGASGKN
As to B5, the binding entry in experiment [1] and in experiment [2] was “binds” in each case.

B6: ATAD-3 (endogenous) (protein, UniProt Q20748 1-595)
chain: MSWLFGVQKNATPQIPDDFQAGAAPGGPQQPGQGQRQEGNSKMAYSFDSTALERAAKAARDLEKFPNAKEALELSRMQEVTRQKEVENETKKIEAQLANMKSEHIRVAEEERRKTLGEETKHAHSRAEYQDQLARKRAEEELAMKARMQEESLRKQEESVKKQEQLRKQTIEHELALKHKYELEKIDAETRARAKAARDNRDVNLEQMKLHEEENRKTVIEKIKTSGELIGSGLNQFLNDKTKIAAAVGGLTALAVGWYTAKRGTGVTARYIESRLGKPSLVRETSRITPLEVLKHPIKSVQMMTRQKKDPLNGVVLPPALERRLRDIAITTSNTKRNNGLFRNVMFYGPPGTGKTLFAKSLAQHSGLDYAVLTGGDIAPLGRDGVSAIHKVFDWASKSRKGLIVFIDEADAFLQKRSKNGMSEDTRAALNAFLFRTGEQSRKFMLVVASNQPEQFDWAVNDRFDQLVEFTLPGMEERERILLQYFNEHIVTPATSGSRSQRLKLDNFDWVAKCNEVAKKTSGMSGRELSKLVIGWQASAYASETGVLTEAIVDRNTADAMVQHEHKMEWLEKEQLKARNQEVKFGTTLKRETAV
With B6, the binding result in experiment [1] is on record as “binds”; in experiment [2], “no binding”; in experiment [3], “no binding”.

The values are drawn from paper PMC4977824.
